Part of at least one peptide drawing is inferred or uncertain, most often the ends. Ends that are not written are not given here.
Test system: mixed micelles
Experiment: Effect of peptides on cholesterol solubility (NBD-cholesterol incorporation) in mixed micelles in vitro
Conditions: peptides 1 mg/ml; mixed micelles without peptides = control (100%); PBS pH 6.5; NBD-cholesterol in supernatant after centrifugation

YYYYYY [YYYYYY]
Cholesterol incorporation: 40 % of control

Source: EP1836906B1, “Healthy food product” (Unilever N.V., priority 2006, dated 2009)
